{"sequences": {"note": "Amino acid sequences for entries named in this document (tags omitted).", "UniProt P07355": "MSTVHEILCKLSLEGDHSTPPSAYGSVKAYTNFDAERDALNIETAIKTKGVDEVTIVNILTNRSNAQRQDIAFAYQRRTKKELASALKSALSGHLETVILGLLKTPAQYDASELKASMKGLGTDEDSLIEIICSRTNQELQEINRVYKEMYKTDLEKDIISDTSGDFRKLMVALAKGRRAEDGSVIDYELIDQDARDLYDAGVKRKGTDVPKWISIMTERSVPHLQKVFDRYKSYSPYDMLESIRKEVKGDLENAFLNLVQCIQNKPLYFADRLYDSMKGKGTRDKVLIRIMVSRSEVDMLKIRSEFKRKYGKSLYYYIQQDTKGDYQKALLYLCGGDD"}, "source": "paper PMC10114587", "target": "T1, LOXL4 wt (tagged, transiently expressed, for the confirming immunoprecipitation) (UniProt Q96JB6)", "T1 sequence": "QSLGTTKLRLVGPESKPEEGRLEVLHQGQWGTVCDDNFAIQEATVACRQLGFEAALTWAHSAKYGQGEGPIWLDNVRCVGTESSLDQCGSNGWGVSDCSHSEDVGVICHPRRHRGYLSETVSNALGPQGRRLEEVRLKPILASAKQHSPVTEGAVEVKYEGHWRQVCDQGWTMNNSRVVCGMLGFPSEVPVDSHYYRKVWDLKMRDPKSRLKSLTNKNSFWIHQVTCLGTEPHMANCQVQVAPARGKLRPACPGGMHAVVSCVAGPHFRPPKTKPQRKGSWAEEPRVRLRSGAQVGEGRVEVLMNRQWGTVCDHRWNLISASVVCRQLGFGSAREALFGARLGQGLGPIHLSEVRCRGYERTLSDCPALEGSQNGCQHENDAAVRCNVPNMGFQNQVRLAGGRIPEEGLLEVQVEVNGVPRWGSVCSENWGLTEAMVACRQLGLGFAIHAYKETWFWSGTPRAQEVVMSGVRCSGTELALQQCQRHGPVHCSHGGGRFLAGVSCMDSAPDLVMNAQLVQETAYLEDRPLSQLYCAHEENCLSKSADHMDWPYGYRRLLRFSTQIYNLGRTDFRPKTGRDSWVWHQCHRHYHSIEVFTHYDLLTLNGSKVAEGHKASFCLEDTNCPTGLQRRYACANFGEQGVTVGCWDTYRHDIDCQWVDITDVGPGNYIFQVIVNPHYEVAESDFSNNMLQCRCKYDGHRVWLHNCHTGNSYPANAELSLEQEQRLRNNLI", "test": "co-IP; immunoprecipitation of transiently expressed tagged constructs (Supplementary Figure S2B); bait and cells not given", "note": "No constants are given. Whether binding was seen depends on the method and setting. In cells and extracts the contact can be indirect. Some binding calls cover weakened binding; strength is not graded here. Sequences can lack the tags named with a protein."}
{"substance": "annexin A2 (tagged, transiently expressed, for the confirming immunoprecipitation) (from UniProt P07355 1-339)", "values": [{"measurement": "binding", "value": "binds"}]}
